Among the data in PubChem BioAssay AID2685 (National Center for Advancing Translational Sciences (NCATS), 2010) are cell number change and AC50 values, retold here.

The nature of the assay: qHTS Assay for Lipid Storage Modulators in Drosophila S3 Cells.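 As to cell number change: cells counted by Cell Tracker Red CMTPX staining in the red channel.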 The settings on record: BODIPY lipid droplet fluorescence, 18-24 h; for cell number change: measured here: cell count max response, cells fed with added oleic acid. In short, it runs like this: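 Drosophila S3 cells loaded with oleic acid (400 uM, as added) and compounds at several concentrations; lipid droplets imaged by 488-nm laser-scanning cytometry, 500–530 nm intensity and object ratio to cell channel. Percent activity normalized to 20 uM Triacsin C.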
(In general: qHTS replaces the single test concentration by a dilution series.)

[1] abbreviates: measured here: lipid fluorescence (Fed channel) AC50, cells fed with added oleic acid.
Setting [2] is: measured here: cell number channel AC50, cells fed with added oleic acid.

Usually AC50 stands for the concentration giving half of the maximal activity seen. The low end stands for greater potency, the high end for weaker potency.

This is one part of the list. Shown are side measurements of this screen, not its main read-out; they come without a call. Compounds called inactive in the main read-out are mostly missing here. Words in brackets tell the shape of the fitted curve; partial curves, single points and poor fits give uncertain potencies.

Turning to `CCOP(=O)(OCC)C(Nc1ccccc1)c1ccccc1C(F)(F)F` (stereo not given), the cell number change worked out at 5.98%. In the case of `CC(=O)Nc1ccc(/C=N\NC(=O)CNS(=O)(=O)c2ccc([N+](=O)[O-])cc2)cc1`, the cell number change was found to be 4.51%. In addition, the AC50 under setting [1] was 20.6 µM [rising, single point]. Consider `Cc1oc(-c2ccccc2F)nc1CN1CCC(C(=O)NC2CCCc3ccccc32)CC1` (stereo not given), for which the cell number change turned out to be 9.54%.

With `CCOc1cc(C(=O)NC(C)Cc2cccs2)cc(OCC)c1OCC` (stereo not given), the cell number change stood at 90.9%. Moreover, under setting [2], the AC50 was 29.1 µM [rising, single point]. Take `Cc1c2cnn(CC(=O)NCCCN3CCCCC3C)c(=O)c2c(C)n1Cc1ccccc1` (stereo not given): the cell number change was 30.3%. Take `O=C(c1sc2ccccc2c1Cl)N(Cc1ccco1)C1CCS(=O)(=O)C1` (stereo not given): the cell number change was found to be 93.7%. For the same molecule, the AC50 under setting [2] is 18.4 µM [rising, single point]. On to `CCN(c1ccccc1)S(=O)(=O)c1ccc(C(=O)N(C)CCc2ccc(OC)c(OC)c2)cc1`, for which the cell number change stood at 17.3%. Also, under setting [1], the AC50 was 14.6 µM [falling, partial curve]. Take `CCC(Sc1nc(N)cc(=O)[nH]1)C(=O)NC(C(=O)OC)c1ccccc1` (stereo not given): the half-maximal activity concentration (AC50) under setting [1] was 0.58 µM [falling, single point]. On the same count and under the same terms, the figure for `Cc1cc(NC(=O)c2cc3ccccc3o2)cc(C)c1OCC(=O)N1CCOCC1` is 0.58 µM [rising, single point]. For `Nc1cc(C(=O)O)c(N)c2c1C(=O)c1ccccc1C2=O`, the cell number change was found to be 1.91%. Moreover, the AC50 under setting [1] was 11.6 µM [rising, partial curve]. In the case of `Cc1nc2ccccc2c2oc(C(=O)N3CCC(C)CC3)cc12`, the cell number change worked out at 6.27%. The AC50 under setting [1] was 29.1 µM [falling, single point]. In the case of `COc1cccc(C(=O)N2CCN(S(=O)(=O)Cc3ccccc3)CC2)c1OC`, the cell number change is -19%. Moreover, the AC50 under setting [1] is 9.2 µM [falling, partial curve]. Take `COc1ccc(N(CC(=O)NC2CCCCC2C)S(=O)(=O)c2c(C)nn(C)c2C)cc1` (stereo not given): the cell number change stood at 2.59%. With `CC(C)(C)c1ccc(C(=O)CC(Sc2ccc(Cl)cc2)C(=O)O)cc1` (stereo not given), the cell number change was -52.4%. Under setting [2], the AC50 was 0.058 µM [falling, full curve, poor fit]. The AC50 under setting [1] was 0.00461 µM [falling, full curve, poor fit]. With `COc1ccc(CCN(C)C(=S)Nc2cccc(C)c2)cc1OC`, the cell number change was found to be 23.9%. With `COc1cccc(OC)c1C(=O)NC(=S)NCc1ccccc1`, the cell number change came to 20.7%. Besides, the AC50 under setting [2] was 6.51 µM [rising, single point]. For the molecule `CCCN(CCC)C(=O)CCS(=O)(=O)c1cccc2nsnc12`, the cell number change is -14.6%. The AC50 under setting [1] is 0.651 µM [falling, single point].

Turning to `COc1ccc(NS(=O)(=O)c2cc(NC(=O)/C=C/c3cccs3)ccc2N2CCOCC2)cc1`, the cell number change was -3.45%. Moreover, the AC50 under setting [1] was 0.058 µM [rising, full curve, poor fit].
